From patent publication US10982100B2, “Slippery liquid-infused porous surfaces and biological applications thereof” (President and Fellows of Harvard College, priority 2011, dated 2021)
At least one read-out could not be matched to a standard name with certainty.

Test: Self-healing time after physical damage / fluid displacement
Format: physicochemical
Details: ~50 μm fluid displacement on epoxy-resin-based SLIPS

Molecule `FC(F)(F)C(F)(F)C(F)(F)C(F)(F)C(F)(F)N(C(F)(F)C(F)(F)C(F)(F)C(F)(F)C(F)(F)F)C(F)(F)C(F)(F)C(F)(F)C(F)(F)C(F)(F)F` [FC-70, perfluoro-tripentylamine] has a measured self-recovery time of about 150 ms.
